The subject of assay [1] is ReNCell VM. The assay can be described thus: neuronal differentiation score (DCX+ cell fraction vs untreated, manual image score) (score (-3 to 3)); higher = more neuronal differentiation. Conditions: 2 uM, 2 weeks.
The subject of assay [2] is ReNCell VM. The assay can be described thus: dopaminergic neuron differentiation score (TH+ cell fraction vs untreated, manual image score) (score (0 to 3)); higher = more TH+ dopaminergic neuron differentiation. Conditions: 2 uM, 4 weeks, BDNF 10 ng/ml + GDNF 10 ng/ml.

Where a name gives a salt, the structure may show the parent alone. The list shows a part of the results. Repeats in this data set agree poorly, so a single value says little.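 Human fetal ventral-midbrain neural progenitor line ReNCell VM, differentiated without mitogens. Images stained for doublecortin (early neurons) or tyrosine hydroxylase (dopaminergic neurons) were scored by blinded raters against untreated wells (0 = no change). Repeats and both raters were averaged, and compounds averaging 2 or higher were picked as hits for retesting.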

Experimental findings from the supplement of paper PMC4635364 are described below.

In the case of `COc1ccc2c(c1)OC[C@@H](Cc1ccc(OC)c(OC)c1)[C@@H]2O`, the neuronal differentiation score in assay [1] (library: Spectrum) is inactive: 0. Also, the “dopaminergic neuron differentiation score” value in assay [2] (library: Spectrum) was inactive: 1.
The corresponding values for `Cc1cc(O)cc(=O)o1` are inactive: 0 and inactive: 0.
On to `CN(c1nccc(=O)[nH]1)C1CCN(c2nc3ccccc3n2Cc2ccc(F)cc2)CC1` [Mizolastine], for which the neuronal differentiation score in assay [1] (library: Prestwick) is inactive: 0. Also, the “dopaminergic neuron differentiation score” value in assay [2] (library: Prestwick) is inactive: 0.
In the case of `CN1CCN(C(c2ccccc2)c2ccc(Cl)cc2)CC1` (stereo not given), the neuronal differentiation score in assay [1] (library: Spectrum) was inactive: 0. The “dopaminergic neuron differentiation score” value in assay [2] (library: Spectrum) was inactive: 0.
As to `COc1ccc(-c2ccc3cc(C(=O)O)ccc3c2)cc1C12CC3CC(CC(C3)C1)C2`, the neuronal differentiation score in assay [1] (library: Spectrum) is inactive: -1. Moreover, in assay [2] (library: Spectrum), the “dopaminergic neuron differentiation score” value is inactive: 0.
`COc1ccc(Cl)cc1C(=O)NCCc1ccc(S(=O)(=O)NC(=O)NC2CCCCC2)cc1` [Glybenclamide]: the neuronal differentiation score in assay [1] (library: LOPAC) is inactive: 0. Moreover, the “dopaminergic neuron differentiation score” value in assay [2] (library: LOPAC) was inactive: 1.
Consider `N=C(CC(O)COc1ccccc1-c1ccccc1)N1CCCCC1` (stereo not given), for which, in assay [1] (library: Tocriscreen), the neuronal differentiation score is inactive: 0. In addition, in assay [2] (library: Tocriscreen), the “dopaminergic neuron differentiation score” value was inactive: 0.
Turning to `COc1cc(C(C)=O)cc(OC)c1O`, the neuronal differentiation score in assay [1] (library: Spectrum) is inactive: 0. Further, the “dopaminergic neuron differentiation score” value in assay [2] (library: Spectrum) was inactive: 0.
On to `CN1CCOC(c2ccccc2)c2ccccc2C1` (stereo not given) [Nefopam hydrochloride], for which the neuronal differentiation score in assay [1] (library: Prestwick) is inactive: 0. Moreover, in assay [2] (library: Prestwick), the “dopaminergic neuron differentiation score” value is inactive: 0.
Turning to `CC1(C)C[C@@H]2/C(CO)=C\C=C/[C@@](C)(O)CC[C@]21O`, the neuronal differentiation score in assay [1] (library: Spectrum) is inactive: 0. Moreover, the “dopaminergic neuron differentiation score” value in assay [2] (library: Spectrum) is inactive: 0.
In the case of `CCN(CC)C(=S)SSC(=S)N(CC)CC` [Disulfiram], in assay [1] (library: Prestwick), the neuronal differentiation score was inactive: 0. In addition, in assay [2] (library: Prestwick), the “dopaminergic neuron differentiation score” value is inactive: 0.
On to `CC(=O)OCC(COC(C)=O)OC(C)=O`, for which, in assay [1] (library: Spectrum), the neuronal differentiation score is inactive: 0. Moreover, the “dopaminergic neuron differentiation score” value in assay [2] (library: Spectrum) is inactive: 0.
Take `CC1c2ccccc2CN1CC1=NCCN1` (stereo not given): the neuronal differentiation score in assay [1] (library: Tocriscreen) was inactive: 0. Further, the “dopaminergic neuron differentiation score” value in assay [2] (library: Tocriscreen) is inactive: 0.
Consider `N#C/C(=C\c1ccc(O)c(O)c1)C(=O)NCCCc1ccccc1`, for which the neuronal differentiation score in assay [1] (library: Tocriscreen) was inactive: 0. For the same compound, the “dopaminergic neuron differentiation score” value in assay [2] (library: Tocriscreen) is inactive: 0.
In the case of `COc1ccc2c(c1)CCC1C2CCC2(C)C(NCCCCCCN3C(=O)C=CC3=O)CCC12` (stereo not given), the neuronal differentiation score in assay [1] (library: LOPAC) is inactive: 0. Besides, the “dopaminergic neuron differentiation score” value in assay [2] (library: LOPAC) is inactive: 0.
For `Nc1ccn([C@H]2CC[C@@H](CO)O2)c(=O)n1`, the neuronal differentiation score in assay [1] (library: Spectrum) is inactive: 0. The “dopaminergic neuron differentiation score” value in assay [2] (library: Spectrum) was inactive: 0.
In the case of `COc1ccc(-n2[nH]c3c4c(ncc3c2=O)CCCCC4)cc1`, the neuronal differentiation score in assay [1] (library: Tocriscreen) was inactive: 0. In addition, the “dopaminergic neuron differentiation score” value in assay [2] (library: Tocriscreen) was inactive: 0.
As to `CCCCCCCCCCCCCCCC(=O)O[C@@H]1[C@@H](O)[C@@H](O)[C@@H]([C@H](NC(=O)[C@@H]2C[C@@H](CCC)CN2C)[C@H](C)Cl)O[C@@H]1SC`, the neuronal differentiation score in assay [1] (library: Spectrum) was inactive: 0. Further, the “dopaminergic neuron differentiation score” value in assay [2] (library: Spectrum) is inactive: 0.
On to `CNC[C@H](O)[C@@H](O)[C@H](O)[C@H](O)CO` [Meglumine], for which the neuronal differentiation score in assay [1] (library: Prestwick) was inactive: 0. In assay [2] (library: Prestwick), the “dopaminergic neuron differentiation score” value was inactive: 0.
With `CC12CC3CC(C)(C1)CC(N)(C3)C2` [Memantine Hydrochloride], in assay [1] (library: Prestwick), the neuronal differentiation score is inactive: 0. The “dopaminergic neuron differentiation score” value in assay [2] (library: Prestwick) is inactive: 0.
In the case of `CC(C)NC[C@@H](O)COc1cccc2ccccc12` [(R)-(+)-Propranolol hydrochloride], the neuronal differentiation score in assay [1] (library: Tocriscreen) is inactive: 0. Moreover, the “dopaminergic neuron differentiation score” value in assay [2] (library: Tocriscreen) is inactive: 0.
For the compound `CCCCCCC[N+](CC)(CC)CCCCc1ccc(Cl)cc1` [Clofilium tosylate], the neuronal differentiation score in assay [1] (library: Prestwick) was inactive: 0. For the same compound, the “dopaminergic neuron differentiation score” value in assay [2] (library: Prestwick) is inactive: 0.
Consider `CN(C)c1nc(N)c(C(=O)NC(=N)N)nc1Cl` [5-(N,N-Dimethyl)amiloride hydrochloride], for which, in assay [1] (library: LOPAC), the neuronal differentiation score was active: 2. Besides, the “dopaminergic neuron differentiation score” value in assay [2] (library: LOPAC) was inactive: 0.
In the case of `N=C(N)c1ccc(N2CCN(C3CCN(CC(=O)O)CC3)CC2)cc1`, the neuronal differentiation score in assay [1] (library: Tocriscreen) is inactive: -1. Further, the “dopaminergic neuron differentiation score” value in assay [2] (library: Tocriscreen) is inactive: 0.
`NC1CCN(c2nc3c(cc2F)c(=O)c(C(=O)O)cn3-c2ccc(F)cc2F)C1` (stereo not given) [Tosufloxacin hydrochloride]: in assay [1] (library: Prestwick), the neuronal differentiation score is inactive: 0. The “dopaminergic neuron differentiation score” value in assay [2] (library: Prestwick) is inactive: 0.
`COc1cccc(CCc2ccccc2OCC[C@@H]2C[C@@H](O)CN2C)c1`: in assay [1] (library: Tocriscreen), the neuronal differentiation score is inactive: -1. In addition, the “dopaminergic neuron differentiation score” value in assay [2] (library: Tocriscreen) was inactive: 0.
`CC(=O)O[C@H]1C[C@@]2(C)[C@@H](C[C@@H](O)[C@H]3[C@@]4(C)CC[C@@H](O)[C@@H](C)[C@@H]4CC[C@@]32C)/C1=C(\CCC=C(C)C)C(=O)O` [Fusidic acid sodium salt]: the neuronal differentiation score in assay [1] (library: Prestwick) is inactive: 0. Besides, the “dopaminergic neuron differentiation score” value in assay [2] (library: Prestwick) was inactive: 0.
Turning to `COc1c2c(cc3c1C(CC(=O)c1c(O)c(OC)c4occc4c1OC)[N+](C)(C)CC3)OCO2` (stereo not given), the neuronal differentiation score in assay [1] (library: Natural) is inactive: 0. Also, the “dopaminergic neuron differentiation score” value in assay [2] (library: Natural) was inactive: 0.
Consider `Cc1ccc(-c2cc(C(F)(F)F)nn2-c2ccc(S(N)(=O)=O)cc2)cc1`, for which, in assay [1] (library: Spectrum), the neuronal differentiation score is inactive: 0. Besides, the “dopaminergic neuron differentiation score” value in assay [2] (library: Spectrum) is inactive: 0.
Regarding `CNC(=O)c1cc2c(cn1)[nH]c1ccccc12`, in assay [1] (library: Tocriscreen), the neuronal differentiation score is inactive: 0. The “dopaminergic neuron differentiation score” value in assay [2] (library: Tocriscreen) was inactive: 0.
Consider `Clc1ccc2nsnc2c1NC1=NCCN1` [Tizanidine HCl], for which, in assay [1] (library: Prestwick), the neuronal differentiation score was inactive: 0. Further, in assay [2] (library: Prestwick), the “dopaminergic neuron differentiation score” value is inactive: 0.
Turning to `CC(C(=O)O)c1ccc(C(=O)c2ccccc2)s1` (stereo not given) [Tiaprofenic acid], in assay [1] (library: Prestwick), the neuronal differentiation score was inactive: 0. Moreover, in assay [2] (library: Prestwick), the “dopaminergic neuron differentiation score” value was inactive: 0.
Take `CC(C)CC(N)=O`: the neuronal differentiation score in assay [1] (library: Spectrum) was inactive: 0. The “dopaminergic neuron differentiation score” value in assay [2] (library: Spectrum) is inactive: 0.
On to `COc1cc(O)c2c(=O)cc(C)oc2c1CC=C(C)C`, for which the neuronal differentiation score in assay [1] (library: Spectrum) is inactive: 0. For the same compound, the “dopaminergic neuron differentiation score” value in assay [2] (library: Spectrum) is inactive: 0.
For the compound `C[C@H]1O[C@@H](O[C@H]2[C@@H](O)C[C@H](O[C@H]3[C@@H](O)C[C@H](O[C@H]4CC[C@@]5(C)[C@H](CC[C@@H]6[C@@H]5C[C@@H](O)[C@]5(C)[C@@H](C7=CC(=O)OC7)CC[C@]65O)C4)O[C@@H]3C)O[C@@H]2C)C[C@H](O)[C@@H]1O` [Digoxin], in assay [1] (library: Prestwick), the neuronal differentiation score was inactive: 0. Further, in assay [2] (library: Prestwick), the “dopaminergic neuron differentiation score” value was inactive: 0.
Consider `CC[C@H]1OC(=O)[C@H](C)[C@@H](O[C@H]2C[C@@](C)(OC)[C@@H](O)[C@H](C)O2)[C@H](C)[C@@H](O[C@@H]2O[C@H](C)C[C@H](N(C)C)[C@H]2O)[C@](C)(O)C[C@@H](C)/C(=N\OCOCCOC)[C@H](C)[C@@H](O)[C@]1(C)O`, for which the neuronal differentiation score in assay [1] (library: Spectrum) was inactive: 0. In addition, the “dopaminergic neuron differentiation score” value in assay [2] (library: Spectrum) is inactive: 0.
With `O=C(O)CC/C=C\C[C@H]1CO[C@@H](c2ccccc2Cl)O[C@H]1c1ccccc1O`, the neuronal differentiation score in assay [1] (library: Tocriscreen) is inactive: 0. In assay [2] (library: Tocriscreen), the “dopaminergic neuron differentiation score” value is inactive: 0.
Consider `O[C@H]1[C@H]2c3cc4c(cc3CN3CCC(=C[C@@H]1O)[C@H]23)OCO4` [Lycorine HCl], for which the neuronal differentiation score in assay [1] (library: Phytochemical) is inactive: 0. Further, the “dopaminergic neuron differentiation score” value in assay [2] (library: Phytochemical) is inactive: 0.
On to `Cc1c(C)c2c(c(C)c1O)CC[C@@](C)(CCC[C@H](C)CCC[C@H](C)CCCC(C)C)O2` (racemic) [Tocopherol (R,S)], for which the neuronal differentiation score in assay [1] (library: Phytochemical) was inactive: 0. The “dopaminergic neuron differentiation score” value in assay [2] (library: Phytochemical) was inactive: 0.
With `O=C(NCCCN1CCCCCC1)C(c1ccccc1)C1CCCCC1` (stereo not given), the neuronal differentiation score in assay [1] (library: Tocriscreen) is inactive: 0. In assay [2] (library: Tocriscreen), the “dopaminergic neuron differentiation score” value is inactive: 0.
